This is one part of the list. These are further read-outs of the screen, such as a control signal, another cell line or another target. No call is given for them. Compounds called inactive in the main read-out are mostly missing here. Words in brackets tell the shape of the fitted curve; partial curves, single points and poor fits give uncertain potencies.
Assay: qHTS Assay for Modulators of Lamin A Splicing
Conditions: HeLa LMNA splicing GFP/RFP minigene ratio, 48 h
Outline: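 S3 HeLa stable clones carrying a lamin A-EGFP splicing minigene plus DsRed2 were seeded at 600 cells/well in Opti-MEM with 2% FBS, pin-dosed and incubated 48 h at 37°C. Acumen cytometry (488 nm) gave the GFP/RFP total-intensity ratio.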

[1] = measured here: RFP viability control channel
[2] = measured here: GFP splicing reporter channel

Row | SMILES | AC50 [1] | AC50 [2]
1 | Cc1ccc2[nH]c3c(N4CCOCC4)ncnc3c2c1 | 31.6 µM [rising, single point] | 
2 | CCC(=O)Nc1cccc(NC(=S)NC(=O)Cc2ccccc2)c1 | 11.2 µM [rising, single point] | 
3 | C=CS(=O)c1sc(Cl)c(N2CCOCC2)c1[N+](=O)[O-] (centres undefined) | 3.16 µM [falling, single point] | 
4 | COc1ccc2nc(NC(=O)CSc3nc(C)cc(C)n3)sc2c1 | 15.8 µM [rising, single point] | 
5 | CC(=O)c1ccc(NC(=O)c2sc(-n3nc(C)c(CCC(C)C)c3C)nc2C)cc1 | 35.5 µM [falling, single point] | 
6 | CCn1nc(C)c(NC(=O)CCCSc2nc(-c3ccco3)cc(C(F)(F)F)n2)c1C | 14.1 µM [rising, partial curve] | 
7 | Cn1c(=O)c2c(nc(N3CCCCC3)n2CCNC2=NCCC2)n(C)c1=O | 35.5 µM [falling, single point] | 35.5 µM [falling, single point]
8 | CCOc1ccccc1NC(=O)CSc1nc2ccccc2nc1Cc1ccc(C)cc1 | 0.562 µM [rising, partial curve, poor fit] | 
9 | O=C1[C@@H]2C(Cc3ccc(O)cc3)NC3(C(=O)Nc4ccc(F)cc43)[C@@H]2C(=O)N1c1ccccc1 (some centres undefined) | 12.6 µM [rising, single point] | 
10 | Cc1ccc(SCc2c(C#N)c3ccccc3n2C)cc1 | 15.8 µM [rising, partial curve] | 
11 | COCCn1c(SC(C(=O)Nc2cc(C)ccc2OC)c2ccccc2)nnc1-c1ccc(Cl)cc1 (centres undefined) | 14.1 µM [rising, single point] | 11.2 µM [rising, partial curve]
12 | COc1cc(OC)c(NC(=O)Cc2c(C(=O)O)c(C)cn2C)cc1Cl | 0.01 µM [rising, full curve, poor fit] | 0.0251 µM [rising, full curve, poor fit]
13 | CN(C)/C=C/C(=O)c1ccc(Oc2ncccn2)cc1 | 35.5 µM [falling, single point] | 0.794 µM [falling, single point]
14 | COc1ccc(C(=O)c2sc(NC(C)C)nc2N)cc1OC | 22.4 µM [falling, single point] | 15.8 µM [falling, partial curve]
15 | CC(C)Cn1c(-c2ccncc2)n[nH]c1=S | 0.708 µM [falling, full curve, poor fit] | 
16 | O=C(NCc1ccncc1)c1nc(-c2cccs2)no1 |  | 3.98 µM [rising, partial curve, poor fit]
17 | CCNc1nc(NCC)nc(Oc2ccc(OCc3ccccc3)nn2)n1 | 8.91 µM [falling, partial curve] | 17.8 µM [falling, single point]
18 | CC(C)NC1=C(Cl)C(=O)c2ccccc2C1=O | 6.31 µM [falling, partial curve] | 35.5 µM [falling, single point]
19 | O=C(/C=C/c1ccc(F)cc1)NCc1ccco1 | 8.91 µM [falling, partial curve, poor fit] | 

2 neighbouring compounds from above:
Row | SMILES | AC50 [1] | AC50 [2]
10 | Cc1ccc(SCc2c(C#N)c3ccccc3n2C)cc1 | 15.8 µM [rising, partial curve] | 
11 | COCCn1c(SC(C(=O)Nc2cc(C)ccc2OC)c2ccccc2)nnc1-c1ccc(Cl)cc1 (centres undefined) | 14.1 µM [rising, single point] | 11.2 µM [rising, partial curve]

(further entries)

Row | SMILES | AC50 [1] | AC50 [2]
20 | CCn1c(O)c(N=NC(=O)c2cccc(S(=O)(=O)N3CCCCC3)c2)c2ccccc21 | 12.6 µM [rising, single point] | 
21 | CCOC(=O)CC(=O)CSc1nc2c(cc1C#N)CCC2 | 14.1 µM [falling, single point] | 
22 | Cc1nc2ccn(Cc3cccnc3)c(=O)c2cc1C(=O)NCc1ccccc1 | 10 µM [rising, single point] | 
23 | O=C(CSc1ncccn1)Nc1ncc(C(F)(F)F)cc1Cl | 35.5 µM [falling, single point] | 
24 | Clc1ccc(N2COC3c4cccc5cccc(c45)C32)cc1 (centres undefined) | 20 µM [rising, single point] | 
25 | COc1cc(OC)c(C(=O)NCCCN2CCOCC2)cc1OC |  | 11.2 µM [falling, partial curve, poor fit]
26 | CCCNC(=O)C/C(C)=N/NC(=O)C(=O)Nc1ccccn1 |  | 0.0282 µM [falling, full curve, poor fit]
27 | O=C(/C=C/c1ccco1)Nc1ccc(Oc2ccccc2)cc1 | 10 µM [falling, partial curve] | 11.2 µM [falling, partial curve, poor fit]
28 | Nc1ncnc2nc(SCCOc3ccc(Cl)cc3)[nH]c12 |  | 20 µM [rising, single point]
29 | CC1(C)CC(C)(c2ccc(O)cc2O)N(c2ccc3ccccc3c2)C(=S)N1 (centres undefined) | 1.12 µM [rising, partial curve, poor fit] | 
30 | Cc1oc(-c2ccccc2Cl)nc1CS(=O)CC(=O)N1CCN(c2cccc(C(F)(F)F)c2)CC1 (centres undefined) | 20 µM [falling, partial curve] | 17.8 µM [falling, partial curve]
31 | Cc1noc(C)c1COc1ccc(C(=O)OCC(=O)Nc2c(C)n(C)n(-c3ccccc3)c2=O)cc1 |  | 35.5 µM [falling, single point]
32 | O=C(CNS(=O)(=O)c1ccc(F)cc1)N1CCN(c2ccc(F)cc2)CC1 | 28.2 µM [rising, single point] | 
33 | CC(C)CCNC(=O)C(c1ccncc1)N(Cc1cccs1)C(=O)Cn1nnc(-c2ccc(F)cc2)n1 (centres undefined) | 12.6 µM [rising, partial curve] | 5.01 µM [falling, full curve]
34 | O=C(Nc1cccc(F)c1)c1cc(S(=O)(=O)NCCC2=CCCCC2)ccc1F | 22.4 µM [rising, partial curve, poor fit] | 
35 | Cn1nnnc1SCCCNCc1cc(Br)ccc1OCc1ccccc1 |  | 35.5 µM [falling, partial curve, poor fit]
36 | COc1ccc(/C=C\C(=O)NCc2ccc3c(c2)cc(C)n3C)cc1OC | 3.55 µM [rising, single point] | 3.16 µM [rising, single point]
37 | Cc1nn(Cc2ccccc2)c(C)c1NC(=O)c1ccc([N+](=O)[O-])cc1[N+](=O)[O-] | 35.5 µM [rising, single point] | 17.8 µM [rising, single point]

Source: PubChem BioAssay AID1487 (National Center for Advancing Translational Sciences (NCATS), 2009)
